These are yes or no findings as the source states them, for the method shown. In cells and extracts the contact can be indirect. Here binding means that the protein was enriched with, or labelled near, the bait; the list need not be complete.
Biological target: 3xFLAG-FzlA (C. crescentus)
Assay: affinity purification with mass spectrometry

Protein sequences, listed by entry. Tags and fused reporters are not part of them. Lines headed by an entry give the natural chain unless they say otherwise; changes in a name come on top.
UniProt A0A0H3CE63: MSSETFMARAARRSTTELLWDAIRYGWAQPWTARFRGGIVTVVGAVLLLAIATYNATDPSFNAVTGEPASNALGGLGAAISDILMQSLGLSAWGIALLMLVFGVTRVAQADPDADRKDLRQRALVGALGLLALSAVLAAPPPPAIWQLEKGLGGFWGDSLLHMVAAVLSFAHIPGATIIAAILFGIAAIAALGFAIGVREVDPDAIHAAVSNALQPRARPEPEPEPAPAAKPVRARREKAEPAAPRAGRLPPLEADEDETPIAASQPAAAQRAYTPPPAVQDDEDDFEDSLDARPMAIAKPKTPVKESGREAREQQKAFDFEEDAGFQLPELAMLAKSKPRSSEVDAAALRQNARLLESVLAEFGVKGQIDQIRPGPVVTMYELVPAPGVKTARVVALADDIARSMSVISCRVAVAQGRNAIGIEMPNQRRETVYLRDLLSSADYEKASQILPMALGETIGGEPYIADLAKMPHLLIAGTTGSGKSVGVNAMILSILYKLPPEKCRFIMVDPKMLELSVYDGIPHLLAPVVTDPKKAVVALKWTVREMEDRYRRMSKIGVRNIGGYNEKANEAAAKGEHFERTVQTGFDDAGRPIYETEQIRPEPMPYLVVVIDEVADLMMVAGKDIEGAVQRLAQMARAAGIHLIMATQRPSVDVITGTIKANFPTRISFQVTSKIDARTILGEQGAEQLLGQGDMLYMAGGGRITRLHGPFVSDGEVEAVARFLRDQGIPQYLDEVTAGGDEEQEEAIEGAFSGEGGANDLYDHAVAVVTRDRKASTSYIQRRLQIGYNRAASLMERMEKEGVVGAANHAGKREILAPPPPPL

binding: binds
Substance: FtsK (from UniProt A0A0H3CE63)
